Data as given in PubChem BioAssay AID540256 (National Center for Advancing Translational Sciences (NCATS), 2011).
Where “and” joins values, the source holds several entries; their conditions need not be identical. Equal entries are not always repeated. Among all 300,000 compounds or so, about 3,700 (1.2%) were called active. This list was built around the results that the source calls inconclusive (neither active nor inactive); the mix of calls is not that of the screen. The call rests on the fitted dose curve; tested in HEK293 cells. A potency beside an inconclusive call is a rough fit, not a confirmed value.

Assay: qHTS for Inhibitors of binding or entry into cells for Lassa Virus; further: nearly all actives have a fitted effect of over 50% in size
Conditions: Lassa virus pseudotype entry inhibition, cell reporter; series mostly up to 37.9 µM
Potency means the concentration at half of the fitted maximal effect.

| SMILES | Potency |
| --- | --- |
| O=C1[C@@H]2Cc3c([nH]c4ccccc34)C(c3cccc(Br)c3)N2C(=O)CN1C1CCN(Cc2ccccc2)CC1 (some centres undefined) | inconclusive: 20 µM [inhibitor, partial curve, poor fit] |
| NCC(CP(=O)(O)O)c1ccc(Cl)cc1 (centres undefined) | inconclusive: 0.116 µM [inhibitor, full curve, poor fit] |
| COc1ccc(-c2cc(C(F)(F)F)nc(SCC(=O)N(C)Cc3cn(C)nc3C)n2)cc1OC | inconclusive: 7.08 µM [inhibitor, partial curve, poor fit] |
| O=C(Cc1sc(Nc2ccccc2)nc1-c1ccccc1)NCc1ccccc1 | inconclusive: 22.4 µM [inhibitor, partial curve, poor fit] |
| COc1cc(N2N=C(c3ccccc3)CC2c2ccccc2)c(C=O)cc1C=O (centres undefined) | inconclusive: 0.141 µM [inhibitor, full curve, poor fit] |
| Cc1cccc(Cn2c(=O)n(-c3ccccc3C)c(=O)c3c2c2cc(C)ccc2n3C)c1 | inconclusive: 6.31 µM [inhibitor, single point] |
| COc1ccc(S(=O)(=O)NCCc2csc3nc(-c4ccccc4)nn23)cc1OC | inactive |
| CC(C)(C)C1CCc2[nH]c3ccccc3c(=O)c2C1 (centres undefined) | inconclusive: 35.5 µM [inhibitor, single point] |
| CCCN(Cc1cc2ccc(C)cc2[nH]c1=O)C(=O)c1cccnc1 | inconclusive: 35.5 µM [activator, partial curve, poor fit] |
| Cc1c(NC(=O)/C(C#N)=C/c2ccc(-c3cccc(Cl)c3)o2)c(=O)n(-c2ccccc2)n1C | inconclusive: 35.5 µM [inhibitor, partial curve, poor fit] |
| CCc1nc2sc3c(O)cc(=O)[nH]c3c2cc1C | inactive |
| CC(C)c1ccc2oc(-c3cc(N)ccc3O)nc2c1 | inconclusive: 16.4 µM [inhibitor, single point] |
| CCOc1cccc(C(=O)Nc2ccc3c(c2)OCCO3)c1 | inconclusive: 7.08 µM [inhibitor, partial curve, poor fit] |
| CCN(CC)c1nn2c(=O)c(C(=O)NCCc3cccc(C)c3)cnc2s1 | inconclusive: 35.5 µM [inhibitor, single point] |
| Brc1ccccc1CN1CCN(Cc2c[nH]c3ccccc23)CC1 | inconclusive: 22.4 µM [inhibitor, single point] |
| Cc1ccc2nc(-c3ccccn3)c(Nc3ccccc3C)n2c1 | inconclusive: 35.5 µM [inhibitor, single point] |
| O=c1cc(-c2ccccc2)n(S(=O)(=O)c2ccc3ccccc3c2)o1 | inconclusive: 7.94 µM [inhibitor, partial curve, poor fit] |
| CCOc1ccc(NC(=O)C(c2ccccn2)N(C(=O)CCl)c2ccc(OCC)cc2)cc1 (centres undefined) | inactive |
| O=C(C1CCCN(S(=O)(=O)c2cccc3nsnc23)C1)N1CCN(c2cccc(Cl)c2)CC1 (centres undefined) | inconclusive: 15.8 µM [inhibitor, single point] |
| COc1cc(OC)c(NC(=O)c2cccc(F)c2)cc1Cl | inconclusive: 6.31 µM [inhibitor, single point] |
| NC(=O)c1nsc(C(=O)N(c2cccc(F)c2)C(C(=O)NC2CCCC2)c2ccc(O)cc2)c1N (centres undefined) | inconclusive: 0.562 µM [inhibitor, full curve, poor fit] |
| N/C(=N\OS(=O)(=O)c1ccc2ccccc2c1)c1ccncc1 | inconclusive: 10 µM [inhibitor, partial curve] |

Two neighbouring records out of the list so far:

| SMILES | Potency |
| --- | --- |
| CCCN(Cc1cc2ccc(C)cc2[nH]c1=O)C(=O)c1cccnc1 | inconclusive: 35.5 µM [activator, partial curve, poor fit] |
| Cc1c(NC(=O)/C(C#N)=C/c2ccc(-c3cccc(Cl)c3)o2)c(=O)n(-c2ccccc2)n1C | inconclusive: 35.5 µM [inhibitor, partial curve, poor fit] |

More results.

| SMILES | Potency |
| --- | --- |
| Cn1nnnc1SCC(=O)NC(=O)Cc1ccccc1 | inactive |
| O=S(=O)(Nc1ccc2c(c1)OCCO2)c1ccc(Br)s1 | inconclusive: 20.6 µM [activator, partial curve, poor fit] |
| COc1cc(CNc2ccc3[nH]c(=O)[nH]c3c2)ccc1OCc1cccc(C)c1 | inconclusive: 1.26 µM [activator, single point] |
| CN(CCc1ccccn1)C(=O)Nc1cc(Cl)cc(Cl)c1 | inconclusive: 3.16 µM [inhibitor, partial curve, poor fit] |
| CCOc1ccccc1NC(=O)CNC(=O)CNC(=O)Cc1ccccc1 | inconclusive: 1.58 µM [inhibitor, partial curve] |
| Nc1cc2c3ccccc3ccc2c2ccccc12 | inconclusive: 15.8 µM [inhibitor, single point] |
| CCN=c1scc(-c2ccco2)n1/N=C/c1ccc(O)cc1 | inconclusive: 32.6 µM [activator, partial curve, poor fit] |
| CC1(c2ccc3c(c2)OCO3)NC(=O)N(CC(=O)NCCC2=CCCCC2)C1=O (centres undefined) | inconclusive: 0.0065 µM [inhibitor, full curve, poor fit] |
| COc1ccc(-c2cc(C(=O)N3CCCCCC3)c3ccccc3n2)cc1 | inactive |
| Cc1ccc(C)c(Cn2cnc3c(cnn3C(C)(C)C)c2=O)c1 | active: 6.31 µM |
| CCOC(=O)c1cnc2ccc(OCC)cc2c1NCc1ccccc1 | inconclusive: 14.6 µM [inhibitor, partial curve] |
| CCCC1=Nc2cc(C(=O)N3CCC(C(=O)OCC)CC3)ccc2Sc2ccccc21 | inconclusive: 1.12 µM [inhibitor, full curve, poor fit] and inconclusive: 7.08 µM [inhibitor, partial curve] |
| CCN(CC)CCCNc1nc2ccccc2c2nc(-c3ccncc3)nn12 | inconclusive: 5.62 µM [inhibitor, single point] |
| COc1ccc(S(=O)(=O)Nc2ccc(Cc3ccncc3)cc2)cc1OC | inconclusive: 1 µM [inhibitor, single point] |
| CCSC(=O)NC1CCCCC1 | inconclusive: 12.6 µM [activator, single point] |
| Cc1cc(C)cc(NC(=O)c2ccc(CNc3c(N4CCCC4)c(=O)c3=O)cc2)c1 | inconclusive: 31.6 µM [activator, single point] |
| Nn1c(SCC(=O)Nc2ccc(OC(F)F)cc2)nnc1-c1ccco1 | inactive |
| Cc1csc2nc(COC(=O)c3ccc(NC(=O)C(C)Oc4ccccc4)cc3)cc(=O)n12 (centres undefined) | inconclusive: 15.8 µM [inhibitor, single point] |
| Cc1onc(-c2c(Cl)cccc2Cl)c1C(=O)N1CCN(c2ccccc2F)CC1 | inconclusive: 6.31 µM [inhibitor, partial curve, poor fit] |
| CCC(=O)Nc1nnc(S(=O)(=O)N2c3ccccc3CC2C)s1 (centres undefined) | inactive |
| Cc1cccc(C)c1NC(=O)COc1ccc2c(C)c(Cc3ccccc3)c(=O)oc2c1 | inconclusive: 6.31 µM [inhibitor, single point] |
| C[C@H](NC(=O)[C@H]1N2C(=O)c3ccccc3C2SC1(C)C)C(=O)N1CCN(C)CC1 (some centres undefined) | inactive |

Structural class, the compounds so far with a thiophene ring, fused or not

| SMILES | Potency |
| --- | --- |
| CCc1nc2sc3c(O)cc(=O)[nH]c3c2cc1C | inactive |
| O=S(=O)(Nc1ccc2c(c1)OCCO2)c1ccc(Br)s1 | inconclusive: 20.6 µM [activator, partial curve, poor fit] |

Carrying on.

| SMILES | Potency |
| --- | --- |
| COc1ccc(-c2csc3ncnc(N4CCN(S(=O)(=O)c5ccc(Cl)s5)CC4)c23)cc1 | inconclusive: 7.08 µM [inhibitor, partial curve, poor fit] |
| Cc1ccc(NC(=O)COC(=O)c2cccc3c(=O)c(C)c(-c4ccccc4)oc23)cc1 | inconclusive: 20.6 µM [inhibitor, partial curve, poor fit] |
| Oc1cc2c(cc1C(c1ccc(Br)cc1)N1CCCC1)OCO2 (centres undefined) | inactive |
| CN(C)S(=O)(=O)c1ccc(C(=O)NCCOc2ccccc2)cc1 | inactive |
| Cc1nn(-c2ccccc2)c(Cl)c1/C=N\NC(=O)c1cnccn1 | inactive |
| Cc1cc(C(=O)Nc2ccc(Cl)cc2)on1 | inactive |
| COc1ccccc1C(=O)N(c1ccc(C)cc1)S(=O)(=O)c1ccc(Cl)cc1 | inconclusive: 3.55 µM [inhibitor, partial curve, poor fit] |
| COc1ccc(NS(=O)(=O)c2cc(NC(=O)c3ccco3)ccc2N2CCCCC2)cc1 | inconclusive: 0.501 µM [inhibitor, full curve, poor fit] |
| COc1ccccc1Oc1ccc(Oc2ccccc2OC)cc1 | inconclusive: 22.4 µM [inhibitor, single point] |
| Cc1nnsc1C(=O)NNS(=O)(=O)c1cc(C(F)(F)F)cc(C(F)(F)F)c1 | inconclusive: 10 µM [inhibitor, partial curve, poor fit] |
| Cc1cccc(-n2c(/C=C/c3cn(C)c4ccccc34)nc3ccccc3c2=O)c1 | inconclusive: 6.31 µM [inhibitor, single point] |
| CCCOc1ccc(C(=O)NC(=S)Nc2nc(C)c(C(=O)N(C)C)s2)cc1 | inactive |
| CCOCCCNC(=O)c1ccc(Br)cc1 | inconclusive: 17.8 µM [activator, single point] |
| COc1ccc(NC(=O)Nc2cccc(C(F)(F)F)c2)cn1 | inconclusive: 20 µM [inhibitor, single point] |
| Cc1cc(C(=O)OCC(=O)N2C(C)CCCC2C)c2ccccc2n1 (centres undefined) | inconclusive: 17.8 µM [inhibitor, partial curve, poor fit] |
| COCCCNC(=O)CN(c1cc(Cl)ccc1OC)S(=O)(=O)c1ccc(C)c([N+](=O)[O-])c1 | inconclusive: 3.16 µM [activator, single point] |
| CCOC(=O)c1ccc(COC(=O)CCc2nc3ccccc3[nH]c2=O)o1 | inactive |
| Oc1c(CN2CCOCC2)cc(COCc2ccccc2)c2cccnc12 | inconclusive: 14.1 µM [inhibitor, partial curve, poor fit] |
| Nc1ccc2oc(-c3cc(Br)ccc3Cl)nc2c1 | inconclusive: 13 µM [inhibitor, partial curve, poor fit] |
| O=C(Nc1ccc(F)cc1F)c1ccc2c(=O)n3c(nc2c1)CCC3 | inconclusive: 35.5 µM [inhibitor, single point] |
